At least one compound was matched to its structure with a doubt left.
Tested on: respiratory complex I
Details: 500 μM drug; isolated rat liver mitochondria; glutamate+malate; qualitative

CN1CCN(C2=Nc3cc(Cl)ccc3Nc3ccccc32)CC1 [Clozapine]
El. Transport Site I: −

— US20020127536A1, “Mitochondrial assay” (priority 2001, published 2002)
